Assay results reported in PubChem BioAssay AID248 (DTP/NCI, 2004).
The list is a part of this screen's results and no random one: it is rich in T/C values a quarter to a half above the control, in often repeated tests (any T/C) and in doses without a T/C. Other doses and runs of a compound stand elsewhere. T/C gives the treated animals as a percentage of the vehicle group. Some doses have a count of surviving animals in place of a T/C: the source files T/C as zero there, which appears to mark a toxic dose or a test without result, not a measured value. Some survivor counts are full or nearly so, which does not show that the dose was tolerated: survival well below the control is almost never listed, so the zero probably covers shortened survival too. Survivors were counted at the toxicity check, usually on the fifth day, unless a day is given; later deaths do not show. Schedules are NCI's codes, taken here to give the interval after Q, in days (D) or hours (H), and the number of doses after X. Some entries hold several experiments; the results are listed from low to high. Some schedule codes hold Z or #, which are not explained here. Where survival is the endpoint, the PubChem record calls one and a half times the control and up active, and a quarter to a half above the control has no call in these data; cut-offs in other NCI protocols can differ.

Test system: L1210 leukemia ip in BDF1 mice, survival T/C
Assay: NCI In Vivo Anticancer Drug Screen. Data for tumor model L1210 Leukemia (intraperitoneal) in B6D2F1 (BDF1) mice
Details: T/C endpoint: mean survival time, higher T/C = longer survival
[1] = dose: 200.0 mg/kg/injection, schedule: Q01DX009 (ip), vehicle: Klucel (hydroxypropylcellulose) (HPC)
[2] = dose: 400.0 mg/kg/injection, schedule: Q04DX002 (ip), vehicle: saline with Tween-80
[3] = dose: 400.0 mg/kg/injection, schedule: Q01DX001 (ip), vehicle: saline
[4] = dose: 400.0 mg/kg/injection, schedule: Q04DX003 (ip), vehicle: saline
[5] = dose: 200.0 mg/kg/injection, schedule: Q04DX003 (ip), vehicle: saline with Tween-80
[6] = dose: 400.0 mg/kg/injection, schedule: Q04DX003 (ip), vehicle: saline with Tween-80
[7] = dose: 12.5 mg/kg/injection, schedule: Q01DX009 (ip), vehicle: Klucel (hydroxypropylcellulose) (HPC)
[8] = dose: 400.0 mg/kg/injection, schedule: Q01DX009 (ip), vehicle: Klucel (hydroxypropylcellulose) (HPC)
[9] = dose: 300.0 mg/kg/injection, schedule: Q01DX001 (ip), vehicle: saline
[10] = dose: 400.0 mg/kg/injection, schedule: Q04DX003 (ip), vehicle: Klucel (hydroxypropylcellulose) (HPC)
[11] = dose: 100.0 mg/kg/injection, schedule: Q01DX009 (ip), vehicle: saline
[12] = dose: 200.0 mg/kg/injection, schedule: Q01DX001 (ip), vehicle: saline
[13] = dose: 400.0 mg/kg/injection, schedule: Q01DX009 (ip), vehicle: saline

With CCOc1ccccc1NC1=C(OC)C(=O)C(Nc2ccccc2OCC)=C(OC)C1=O the survivor count [1] was 6 of 6.
Cc1c2oc3c(C)ccc(C(=O)OCCN4CCCCC4)c3nc-2c(C(=O)OCCN2CCCCC2)c(N)c1=O was tested, and the survivor count [2] was 1 of 3.
For CN1C(=O)N(C)C(=O)C(O)(C2(O)C(=O)N(C)C(=O)N(C)C2=O)C1=O, the survivor count (dose: 75.0 mg/kg/injection, schedule: Q01DX001 (ip), vehicle: other) was 3 of 6, the survivor count (dose: 150.0 mg/kg/injection, schedule: Q01DX001 (ip), vehicle: other) was 0 of 6 and the survivor count (dose: 300.0 mg/kg/injection, schedule: Q01DX001 (ip), vehicle: other) was 0 of 6.
For C=C1C(=O)OC2C3OC(C)(CCC(O)C3COC(C)=O)CC(OC(=O)/C(=C/C)COC(C)=O)C12 (stereo not drawn), the survivor count (dose: 3.13 mg/kg/injection, schedule: Q01DX009 (ip), vehicle: Klucel (hydroxypropylcellulose) (HPC)) was 6 of 6.
For Cc1ccc([I+]c2ccccc2C(=O)[O-])c(C)c1, the survivor count [3] was 2 of 4.
For Cc1cc([N+](=O)[O-])sc1[N+](=O)[O-], the survivor count (dose: 200.0 mg/kg/injection, schedule: Q04DX003 (ip), vehicle: saline) was 6 of 6 and the survivor count [4] was 0 of 6.
For O=c1[nH]c(=O)n(O)c2nc[nH]c12, the survivor count [5] was 6 of 6 and the survivor count [6] was 4 of 6.
CCOC(=O)c1ccc(NCCC(=O)CBr)cc1 was tested, and the survivor count (dose: 80.0 mg/kg/injection, schedule: Q01DX001 (ip), vehicle: carboxymethylcellulose (CMC)) was 2 of 4, the survivor count (dose: 100.0 mg/kg/injection, schedule: Q01DX001 (ip), vehicle: carboxymethylcellulose (CMC)) was 0 of 4 and the survivor count (dose: 200.0 mg/kg/injection, schedule: Q01DX001 (ip), vehicle: carboxymethylcellulose (CMC)) was 1 of 4. The survivor count (dose: 400.0 mg/kg/injection, schedule: Q01DX001 (ip), vehicle: carboxymethylcellulose (CMC)) was 0 of 4.
For O=C(CCl)NC(=O)CCl, the survivor count [3] was 2 of 6 and the survivor count [6] was 0 of 6.
With O=S(=O)(F)c1ccccc1C[P+](c1ccccc1)(c1ccccc1)c1ccccc1 the survivor count (dose: 6.25 mg/kg/injection, schedule: Q01DX009 (ip), vehicle: Klucel (hydroxypropylcellulose) (HPC)) was 4 of 6, the survivor count [7] was 6 of 6 and the survivor count (dose: 25.0 mg/kg/injection, schedule: Q01DX009 (ip), vehicle: Klucel (hydroxypropylcellulose) (HPC)) was 4 of 6 and 5 of 6. For the same compound, the survivor count (dose: 50.0 mg/kg/injection, schedule: Q01DX009 (ip), vehicle: Klucel (hydroxypropylcellulose) (HPC)) was 0 of 6, the survivor count (dose: 100.0 mg/kg/injection, schedule: Q01DX009 (ip), vehicle: Klucel (hydroxypropylcellulose) (HPC)) was 0 of 6 and the survivor count [1] was 0 of 6. For the same compound, the survivor count [8] was 0 of 6.
O=C(O)C(Br)C(Br)C(=O)Nc1ccc(F)cc1 (stereo not drawn) was tested, and the survivor count [2] was 1 of 3.
In the case of CCN(CC)CCNC(=O)c1c2nc3c(C(=O)NCCN(CC)CC)ccc(C)c3oc-2c(C)c(=O)c1N, the survivor count (dose: 150.0 mg/kg/injection, schedule: Q01DX001 (ip), vehicle: carboxymethylcellulose (CMC)) is reported as 4 of 6 and the survivor count (dose: 300.0 mg/kg/injection, schedule: Q01DX001 (ip), vehicle: carboxymethylcellulose (CMC)) is reported as 0 of 6.
For C=CCNC(=O)C1C2C=CC(C2)C1C(=O)NCC=C (stereo not drawn), the survivor count [6] was 0 of 3.
In the case of O=[N+]([O-])c1ccc(C=Nc2ccc3c(c2)C(Br)c2ccccc2-3)cc1 (stereo not drawn), the survivor count (dose: 50.0 mg/kg/injection, schedule: Q01DX Z (ip), vehicle: saline) is reported as 6 of 6.
c1ccc2sc(SSN3CCOCC3)nc2c1 was tested, and the survivor count [4] was 3 of 6.
In the case of Cc1cc2c(cc1C)N(C(=O)CCl)CC(=O)N2, the survivor count (dose: 150.0 mg/kg/injection, schedule: Q01DX001 (ip), vehicle: saline) is reported as 0 of 6 and the survivor count [9] is reported as 0 of 6.
With COc1ccc2nc3c4ccccc4scc-3c2c1 the survivor count [5] was 6 of 6 and the survivor count [6] was 5 of 6.
For C(CC1CCNCC1)CC1CCNCC1, the survivor count (dose: 100.0 mg/kg/injection, schedule: Q01DX Z (ip), vehicle: saline) was 0 of 6, the survivor count (dose: 100.0 mg/kg/injection, schedule: Q04DX003 (ip), vehicle: saline with Tween-80) was 0 of 3 and the survivor count [5] was 0 of 3. The survivor count (dose: 300.0 mg/kg/injection, schedule: Q01DX Z (ip), vehicle: saline) was 0 of 6 and the survivor count [6] was 0 of 3.
With COC(=O)C(CSCc1ccccc1)NC(=O)OCc1ccccc1 (stereo not drawn) the survivor count [10] was 6 of 6.
For CC(C)(C)C1C(=O)N1C(C)(C)C (stereo not drawn), the survivor count [8] was 1 of 6.
CCN(CC)CCOCCN(CC)CC was tested, and the survivor count [9] was 3 of 6.
In the case of C#CC1(NC(c2cc(Cl)cc(Cl)c2O)P(=O)(c2ccccc2)c2ccccc2)CCCCC1 (stereo not drawn), the survivor count [8] is reported as 6 of 6.
CCCCP(=O)(CCCC)Oc1ccccc1F was tested, and the survivor count (dose: 400.0 mg/kg/injection, schedule: Q01DX009 (ip), vehicle: saline with Tween-80) was 0 of 6.
For CCCCNC(C)(C)CSSSCC(C)(C)NCCCC, the survivor count (dose: 100.0 mg/kg/injection, schedule: Q04DX003 (ip), vehicle: other) was 6 of 6, the survivor count (dose: 200.0 mg/kg/injection, schedule: Q01DX009 (ip), vehicle: other) was 1 of 6 and the survivor count (dose: 200.0 mg/kg/injection, schedule: Q04DX003 (ip), vehicle: other) was 2 of 6. For the same compound, the survivor count (dose: 400.0 mg/kg/injection, schedule: Q04DX003 (ip), vehicle: other) was 0 of 6.
For CCOCN(C)C, the T/C [11] was 128 % of control, the survivor count (dose: 150.0 mg/kg/injection, schedule: Q01DX009 (ip), vehicle: saline) was 3 of 6 and the survivor count [12] was 6 of 6. For the same compound, the survivor count [3] was 0 of 6.
O=C(O)c1cc2ccccc2o1 was tested, and the survivor count (dose: 200.0 mg/kg/injection, schedule: Q01DX009 (ip), vehicle: saline with Tween-80) was 1 of 6.
With Cc1cc(N(CCOS(C)(=O)=O)CCOS(C)(=O)=O)ccc1N=O the T/C (dose: 125.0 micrograms/kg/injection, schedule: Q01DX010 (ip), vehicle: saline) was 125 % of control, the T/C (dose: 250.0 micrograms/kg/injection, schedule: Q01DX010 (ip), vehicle: saline) was 143 % of control and the T/C (dose: 500.0 micrograms/kg/injection, schedule: Q01DX010 (ip), vehicle: saline) was 149 % of control.
With CCc1c[n+]([O-])c(C)cc1[N+](=O)[O-] the survivor count [13] was 0 of 6.
With CCc1c2cc3c(cc2cc2c4cc5c(cc4cc[n+]12)OCO5)OCO3 (tested in a mixture with another compound) the survivor count [7] was 2 of 6, the survivor count (dose: 25.0 mg/kg/injection, schedule: Q04DX003 (ip), vehicle: Klucel (hydroxypropylcellulose) (HPC)) was 6 of 6 and the survivor count (dose: 50.0 mg/kg/injection, schedule: Q04DX003 (ip), vehicle: Klucel (hydroxypropylcellulose) (HPC)) was 2 of 6. The survivor count (dose: 100.0 mg/kg/injection, schedule: Q04DX003 (ip), vehicle: Klucel (hydroxypropylcellulose) (HPC)) was 1 of 6, the survivor count (dose: 200.0 mg/kg/injection, schedule: Q04DX003 (ip), vehicle: Klucel (hydroxypropylcellulose) (HPC)) was 0 of 6 and the survivor count [10] was 0 of 6.
In the case of CCN(CC)CCC(CNC(=O)CN(CC)CC)(c1cccc2ccccc12)C(C)C (stereo not drawn), the survivor count [11] is reported as 1 of 6, the survivor count (dose: 200.0 mg/kg/injection, schedule: Q01DX009 (ip), vehicle: saline) is reported as 0 of 6 and the survivor count [13] is reported as 0 of 6.
With O=C(c1ccccc1)N1CC2CC3OC3c3cccc1c32 (stereo not drawn) the survivor count [6] was 5 of 6.
In the case of Cc1nccn1-c1ccccc1N=Cc1ccc(N(CCCl)CCCl)cc1, the survivor count (dose: 100.0 mg/kg/injection, schedule: Q04DX002 (ip), vehicle: saline) is reported as 1 of 3, the survivor count (dose: 200.0 mg/kg/injection, schedule: Q04DX002 (ip), vehicle: saline) is reported as 0 of 3 and the survivor count (dose: 400.0 mg/kg/injection, schedule: Q04DX002 (ip), vehicle: saline) is reported as 0 of 3.
C=C(C)COc1c(Cl)cc(Cl)cc1C=Nc1ccccc1 was tested, and the survivor count (dose: 400.0 mg/kg/injection, schedule: Q01DX001 (ip), vehicle: saline with Tween-80) was 6 of 6.
CCN1C(=O)CC2CCCC1C2 (stereo not drawn) was tested, and the survivor count [12] was 2 of 4 and the survivor count [3] was 1 of 4.
